Data reported in the supplement of paper PMC4635364.
Where a name gives a salt, the structure may show the parent alone. This is one part of the list. Single values are uncertain here, since repeats match poorly.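 Human fetal ventral-midbrain neural progenitor line ReNCell VM, differentiated without mitogens. Images stained for doublecortin (early neurons) or tyrosine hydroxylase (dopaminergic neurons) were scored by blinded raters against untreated wells (0 = no change). Repeats and both raters were averaged, and compounds averaging 2 or higher were picked as hits for retesting.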

Legend:
ReNCell VM [1] = experiment: neuronal differentiation score (DCX+ cell fraction vs untreated, manual image score) (score (-3 to 3)); higher = more neuronal differentiation; details: 2 uM, 2 weeks
ReNCell VM [2] = experiment: dopaminergic neuron differentiation score (TH+ cell fraction vs untreated, manual image score) (score (0 to 3)); higher = more TH+ dopaminergic neuron differentiation; details: 2 uM, 4 weeks, BDNF 10 ng/ml + GDNF 10 ng/ml

| Compound | neuronal differentiation score (ReNCell VM [1]; library: LOPAC) | neuronal differentiation score (ReNCell VM [1]; library: Prestwick) | neuronal differentiation score (ReNCell VM [1]; library: Tocriscreen) | dopaminergic neuron differentiation score (ReNCell VM [2]; library: LOPAC) | dopaminergic neuron differentiation score (ReNCell VM [2]; library: Prestwick) | dopaminergic neuron differentiation score (ReNCell VM [2]; library: Tocriscreen) | neuronal differentiation score (ReNCell VM [1]; library: Phytochemical) | dopaminergic neuron differentiation score (ReNCell VM [2]; library: Phytochemical) |
| --- | --- | --- | --- | --- | --- | --- | --- | --- |
| COC(=O)Nc1nc2cc(C(=O)c3cccs3)ccc2[nH]1 [Nocodazole] | inactive: 0 | inactive: 0 | inactive: 0 | inactive: 0 | inactive: 0 | inactive: 0 | – | – |
| O=C1CCc2cc(OCCCCc3nnnn3C3CCCCC3)ccc2N1 [Cilostazol] | inactive: 0 | inactive: 0 | inactive: 0 | inactive: 0 | active: 3 | inactive: 0 | – | – |
| COc1ccc2c3c1O[C@H]1C[C@@H](O)C=C[C@@]31CCN(C)C2 [Galanthamine hydrobromide] | – | inactive: 0 | inactive: 0 | – | inactive: 0 | inactive: 0 | inactive: 0 | inactive: 0 |
| CN(C)CCC=C1c2ccccc2COc2ccccc21 [Doxepin hydrochloride] | inactive: 0 | inactive: 0 | inactive: 0 | inactive: 1 | inactive: 0 | inactive: 0 | – | – |
| COC(=O)[C@@H]1[C@H]2C[C@H]3c4[nH]c5ccccc5c4CCN3C[C@@H]2CC[C@@H]1O [Yohimbine hydrochloride] | inactive: 0 | inactive: 0 | inactive: 0 | inactive: 0 | inactive: 0 | inactive: 0 | inactive: 0 | inactive: 0 |
| CC/C(=C(\c1ccccc1)c1ccc(OCCN(C)C)cc1)c1ccccc1 [Tamoxifen citrate] | inactive: 0 | inactive: 0 | inactive: 0 | inactive: 0 | inactive: 0 | inactive: 0 | – | – |
| Cn1cnc2c1c(=O)[nH]c(=O)n2C [Theobromine] | inactive: 0 | inactive: 0 | – | inactive: 0 | inactive: 0 | – | inactive: 0 | inactive: 0 |
| Cc1oncc1C(=O)Nc1ccc(C(F)(F)F)cc1 [Leflunomide] | inactive: 0 | active: 2 | inactive: 0 | inactive: 0 | inactive: 0 | inactive: 0 | – | – |
| Clc1cccc(Cl)c1NC1=NCCN1 [Clonidine hydrochloride] | inactive: 0 | inactive: 0 | inactive: 0 | inactive: 0 | inactive: 0 | inactive: 0 | – | – |
| CCCOc1ccccc1-c1nc2[nH]nnc2c(=O)[nH]1 [Zaprinast] | inactive: 0 | inactive: 0 | inactive: 0 | active: 3 | inactive: 0 | inactive: 0 | – | – |
| CN/C(=N\CCSCc1nc[nH]c1C)NC#N [Cimetidine] | inactive: 1 | inactive: 0 | inactive: 0 | inactive: 0 | inactive: 0 | inactive: 0 | – | – |
| COc1cc([C@@H]2c3cc4c(cc3[C@@H](O[C@@H]3O[C@@H]5CO[C@@H](C)O[C@H]5[C@H](O)[C@H]3O)[C@H]3COC(=O)[C@H]23)OCO4)cc(OC)c1O [Etoposide] | inactive: 0 | inactive: 0 | inactive: 0 | inactive: 0 | inactive: 0 | inactive: 0 | inactive: 0 | inactive: 0 |
| CCOC(=O)C1=C[C@]2(CC)CCCN3CCc4c(n1c1ccccc41)[C@@H]32 [Vinpocetine] | inactive: 0 | inactive: 0 | inactive: 0 | inactive: 0 | inactive: 0 | inactive: 0 | inactive: 1 | inactive: 0 |
| CC(C)[N+]1(C)[C@@H]2CC[C@H]1C[C@@H](OC(=O)C(CO)c1ccccc1)C2 (some centres undefined) [Ipratropium bromide] | inactive: -1 | – | inactive: 0 | inactive: 0 | – | inactive: 0 | inactive: 0 | inactive: 0 |
| COc1ccc([C@@H]2Sc3ccccc3N(CCN(C)C)C(=O)[C@@H]2OC(C)=O)cc1 [Diltiazem hydrochloride] | inactive: 0 | inactive: 0 | inactive: 0 | inactive: 0 | inactive: 0 | inactive: 0 | – | – |
| COC(=O)[C@H]1[C@H]2C[C@@H]3c4[nH]c5cc(OC)ccc5c4CCN3C[C@H]2C[C@@H](OC(=O)c2cc(OC)c(OC)c(OC)c2)[C@@H]1OC [Reserpine] | inactive: 0 | inactive: 0 | inactive: 0 | inactive: 0 | inactive: 0 | inactive: 0 | inactive: 0 | inactive: 0 |
| C=C1C(=O)O[C@H]2[C@H]1CC/C(C)=C/CC[C@@]1(C)O[C@@H]21 [Parthenolide] | inactive: 0 | inactive: 0 | inactive: 0 | inactive: 0 | inactive: 0 | inactive: 0 | inactive: 0 | inactive: 0 |
| N=C(N)N/N=C/c1c(Cl)cccc1Cl [Guanabenz acetate] | inactive: 0 | inactive: 0 | inactive: 0 | inactive: 0 | inactive: 0 | inactive: 0 | – | – |
| CC[C@H](C)C(=O)O[C@H]1CCC=C2C=C[C@H](C)[C@H](CC[C@@H]3C[C@@H](O)CC(=O)O3)[C@H]21 [Mevastatin] | active: 3 | inactive: 1 | active: 2 | active: 2 | active: 3 | active: 2 | – | – |

Nothing new here: an excerpt of the list.

| Compound | neuronal differentiation score (ReNCell VM [1]; library: LOPAC) | neuronal differentiation score (ReNCell VM [1]; library: Prestwick) | neuronal differentiation score (ReNCell VM [1]; library: Tocriscreen) | dopaminergic neuron differentiation score (ReNCell VM [2]; library: LOPAC) | dopaminergic neuron differentiation score (ReNCell VM [2]; library: Prestwick) | dopaminergic neuron differentiation score (ReNCell VM [2]; library: Tocriscreen) | neuronal differentiation score (ReNCell VM [1]; library: Phytochemical) | dopaminergic neuron differentiation score (ReNCell VM [2]; library: Phytochemical) |
| --- | --- | --- | --- | --- | --- | --- | --- | --- |
| C=C1C(=O)O[C@H]2[C@H]1CC/C(C)=C/CC[C@@]1(C)O[C@@H]21 [Parthenolide] | inactive: 0 | inactive: 0 | inactive: 0 | inactive: 0 | inactive: 0 | inactive: 0 | inactive: 0 | inactive: 0 |
| N=C(N)N/N=C/c1c(Cl)cccc1Cl [Guanabenz acetate] | inactive: 0 | inactive: 0 | inactive: 0 | inactive: 0 | inactive: 0 | inactive: 0 | – | – |
